Results deposited as PubChem BioAssay AID504791 (Drosophila RNAi Screening Center, 2011).
The deposit covers about 23,000 reagents; this is an unselected part of those that have a named target and a result. Over the whole deposit, 199 (0.86%) got an active call. 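Plate-scaled ratios behind the calls are not deposited; printed light signals are raw; many rows marked increased or decreased are still called inactive.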 Unmarked entries are inactive. Not stated in the record: the direction of the score.

- Assay: 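Factors in Argonaute-based small RNA production and activity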 (primary screen)
- System: Drosophila S2-derived reporter cells
- Reagent: long dsRNA against Drosophila genes, about 150-250 ng dsRNA per well (siRNA assay); about 80-120 ng (miRNA assay)
- Time to read-out: about 5 days (siRNA assay); about 4 days (miRNA assay)
- Challenge: copper sulfate induction of reporters: 25 µM (siRNA assay); 200 mM stated (miRNA assay), 1-2 days before reading
- Measured: 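Per-well ratio of Renilla over firefly light, expressed relative to that plate's average ratio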
- Units: stable assay Renilla, run 1 in luminescence; stable assay firefly, run 1 in luminescence
- Active means: 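a well was a first-pass pick when its plate-scaled ratio rose above 1.5 (siRNA assay) or 1.6 (miRNA assay), or dropped below 0.6; a gene counted only if two separate dsRNAs agreed on retest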

For CG1233 [DRSC08269], what does the deposit list?
stable assay Renilla, run 1: 9145; stable assay firefly, run 1: 3.79e5

What did the screen give for CG13082 [DRSC02186]?
stable assay Renilla, run 1: 6471; stable assay firefly, run 1: 3.58e5

Which result is listed for Su(var)3-9 [DRSC14484]?
stable assay Renilla, run 1: 6163; stable assay firefly, run 1: 3.59e5

For HnRNP-K [DRSC07585], what does the deposit list?
stable assay Renilla, run 1: 5850; stable assay firefly, run 1: 5.51e5

How did the screen score HnRNP-K [DRSC22734]?
stable assay Renilla, run 1: 1995; stable assay firefly, run 1: 2.89e5

For CG12641 (retired record) [DRSC17848], how do the results read?
stable assay Renilla, run 1: 4579; stable assay firefly, run 1: 2.66e5

How did the screen score CG12641 (retired record) [DRSC23059]?
stable assay Renilla, run 1: 3359; stable assay firefly, run 1: 2.86e5

With Klp59C [DRSC04348], what was measured?
stable assay Renilla, run 1: 6086; stable assay firefly, run 1: 3.25e5

Which result is listed for CG1941 [DRSC06802]?
stable assay Renilla, run 1: 6007; stable assay firefly, run 1: 2.89e5

With CG17065 [DRSC20544], how do the results read?
stable assay Renilla, run 1: 6511; stable assay firefly, run 1: 5.21e5

With CG13705 [DRSC08314], what was measured?
stable assay Renilla, run 1: 7330; stable assay firefly, run 1: 5.93e5

With CG13705 [DRSC22691], what was measured?
stable assay Renilla, run 1: 4459; stable assay firefly, run 1: 4.41e5

With Lerp [DRSC14750], what was measured?
stable assay Renilla, run 1: 7027; stable assay firefly, run 1: 3.39e5

For Lerp [DRSC14751], how do the results read?
stable assay Renilla, run 1: 6958; stable assay firefly, run 1: 4.77e5

What is on record for Lerp [DRSC16030]?
stable assay Renilla, run 1: 7722; stable assay firefly, run 1: 3.48e5

For Lerp [DRSC16031], how do the results read?
stable assay Renilla, run 1: 5840; stable assay firefly, run 1: 3.55e5

For CG42747 [DRSC10209], what was measured?
stable assay Renilla, run 1: 7703; stable assay firefly, run 1: 4.70e5

Which result is listed for CG42747 [DRSC10210]?
stable assay Renilla, run 1: 6712; stable assay firefly, run 1: 3.91e5

For ohgt [DRSC15521], what does the deposit list?
stable assay Renilla, run 1: 7155; stable assay firefly, run 1: 5.27e5

For CG14598 [DRSC12541], what was measured?
stable assay Renilla, run 1: 6727; stable assay firefly, run 1: 4.24e5

Which result is listed for Tmtc2 [DRSC00272]?
stable assay Renilla, run 1: 17401; stable assay firefly, run 1: 3.64e5

Ordered by “stable assay firefly, run 1” (high to low): 3 of the entries above
CG13705 [DRSC08314] → stable assay Renilla, run 1: 7330; stable assay firefly, run 1: 5.93e5
CG17065 [DRSC20544] → stable assay Renilla, run 1: 6511; stable assay firefly, run 1: 5.21e5
CG13705 [DRSC22691] → stable assay Renilla, run 1: 4459; stable assay firefly, run 1: 4.41e5

The results go on:
What is on record for AQP [DRSC06122]?
stable assay Renilla, run 1: 5754; stable assay firefly, run 1: 3.08e5

With CG17636 [DRSC20648], how do the results read?
stable siRNA reporter change: reporter ratio raised past the hit cutoff; stable assay Renilla, run 1: 6127; stable assay firefly, run 1: 2.72e5

How did the screen score Galphaq [DRSC07432]?
stable assay Renilla, run 1: 9539; stable assay firefly, run 1: 4.52e5

What did the screen give for pdm3 [DRSC06076]?
stable assay Renilla, run 1: 6531; stable assay firefly, run 1: 3.13e5

With pdm3 [DRSC06490], how do the results read?
stable assay Renilla, run 1: 5554; stable assay firefly, run 1: 2.68e5

With pdm3 [DRSC22326], how do the results read?
stable assay Renilla, run 1: 8417; stable assay firefly, run 1: 4.74e5

What is on record for pdm3 [DRSC23181]?
stable assay Renilla, run 1: 4359; stable assay firefly, run 1: 2.86e5

With CG5174 [DRSC06920], how do the results read?
stable assay Renilla, run 1: 9358; stable assay firefly, run 1: 3.66e5

For CG10650 [DRSC02085], how do the results read?
stable assay Renilla, run 1: 6554; stable assay firefly, run 1: 1.75e6

With CG16772 [DRSC02516], what was measured?
stable assay Renilla, run 1: 6735; stable assay firefly, run 1: 4.03e5

For CR31541 (retired record) [DRSC21876], what was measured?
stable assay Renilla, run 1: 8155; stable assay firefly, run 1: 6.38e5

What did the screen give for PDZ-GEF [DRSC03231]?
stable assay Renilla, run 1: 6654; stable assay firefly, run 1: 4.77e5

With SAK [DRSC11879], what was measured?
stable assay Renilla, run 1: 6559; stable assay firefly, run 1: 3.65e5

For SAK [DRSC23329], how do the results read?
stable assay Renilla, run 1: 4215; stable assay firefly, run 1: 2.96e5
